{"source": "the supplement of paper PMC9938546", "note": "Where a name gives a salt, the structure may show the parent alone. The list shows a part of the results. Plates or batches differ in their baseline, so values are only roughly comparable.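 HCT116-GFP is a human colorectal cancer cell line that carries a KRAS mutation, is microsatellite-unstable and always makes green fluorescent protein; the immune cells came from healthy donors. Live-cell imaging of the green signal stood in for cancer cell survival, and activated immune cells alone cut survival to about half.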"}
{"tested_on": "HCT116-GFP", "assay": "HCT116-GFP viability (GFP intensity) relative to untreated HCT116-GFP monoculture control, co-culture with activated PBMCs; higher = less cancer cell killing", "settings": "culture: co-culture with anti-CD3/IL2 activated PBMCs 1:1; 10 µM; 72 h", "units": {"HCT116-GFP viability": "%"}}
{"compound": "c1ccc2c(c1)Nc1ccccc1S2", "note": "[Phenothiazine]", "HCT116-GFP viability": 24}
{"compound": "O=c1c2ccccc2[se]n1-c1ccccc1", "note": "[Ebselen]", "HCT116-GFP viability": 64.3}
{"compound": "CC(=O)O[C@H]1C[C@@H]2CC[C@@H]3[C@H](CC[C@@]4(C)[C@H]3C[C@H]([N+]3(C)CCCCC3)[C@@H]4OC(C)=O)[C@@]2(C)C[C@@H]1[N+]1(C)CCCCC1", "note": "[Pancuronium bromide]", "HCT116-GFP viability": 29.2}
{"compound": "CCCC(C)C1(CC)C(=O)NC(=O)NC1=O", "note": "(stereo not drawn) [Pentobarbital]", "HCT116-GFP viability": 42.3}
{"compound": "C=CCN1CC[C@]23c4c5ccc(O)c4O[C@H]2C(=O)CC[C@@]3(O)[C@H]1C5", "note": "[Naloxone hydrochloride]", "HCT116-GFP viability": 38.7}
{"compound": "C[C@]12CCC(=O)C=C1C=C[C@@H]1[C@@H]2CC[C@@]2(C)[C@H]1CC[C@@]2(O)CCC(=O)O", "note": "[Canrenoic acid potassium salt]", "HCT116-GFP viability": 48.9}
{"compound": "C(#CCN1CCCC1)CN1CCCC1", "note": "[Tremorine dihydrochloride]", "HCT116-GFP viability": 36.2}
{"compound": "CN1[C@@H]2C[C@@H](OC(=O)[C@H](CO)c3ccccc3)C[C@H]1[C@@H]1O[C@@H]12", "note": "[Scopolamine hydrochloride]", "HCT116-GFP viability": 72.6}
{"compound": "C#C[C@]1(O)CC[C@H]2[C@@H]3CCC4=CC(=O)CCC4=C3C=C[C@@]21CC", "note": "[Gestrinone]", "HCT116-GFP viability": 47.9}
{"compound": "N[C@@H]1C[C@H]1c1ccccc1", "note": "[Tranylcypromine hydrochloride]", "HCT116-GFP viability": 47.8}
{"compound": "NCC(CC(=O)O)c1ccc(Cl)cc1", "note": "(racemic) [Baclofen (R,S)]", "HCT116-GFP viability": 37.4}
{"compound": "O=C1CC[C@@]2(O)[C@H]3Cc4ccc(O)c5c4[C@@]2(CCN3CC2CC2)[C@H]1O5", "note": "[Naltrexone hydrochloride dihydrate]", "HCT116-GFP viability": 52.5}
{"compound": "CN[C@@H]1[C@@H](O)[C@@H](O[C@@H]2[C@@H](O)[C@H](O[C@H]3O[C@H](CN)CC[C@H]3N)[C@@H](N)C[C@H]2N)OC[C@]1(C)O.CN[C@@H]1[C@@H](O)[C@@H](O[C@@H]2[C@@H](O)[C@H](O[C@H]3O[C@H]([C@@H](C)N)CC[C@H]3N)[C@@H](N)C[C@H]2N)OC[C@]1(C)O.CN[C@@H]1[C@@H](O)[C@@H](O[C@@H]2[C@@H](O)[C@H](O[C@H]3O[C@H]([C@@H](C)NC)CC[C@H]3N)[C@@H](N)C[C@H]2N)OC[C@]1(C)O", "note": "[Gentamicine sulfate]", "HCT116-GFP viability": 52.1}
{"compound": "CC(NC(C)(C)C)C(=O)c1cccc(Cl)c1", "note": "(stereo not drawn) [Bupropion hydrochloride]", "HCT116-GFP viability": 36.5}
{"compound": "CN1CCC2(C)c3cc(O)ccc3N(C)C12", "note": "(single isomer, unassigned; (-)) [(-)-Eseroline fumarate salt]", "HCT116-GFP viability": 35.3}
{"compound": "CC[C@@H](CO)NC(=O)[C@@H]1C=C2c3cccc4[nH]cc(c34)C[C@H]2N(C)C1", "note": "[Methylergometrine maleate]", "HCT116-GFP viability": 44.7}
{"compound": "Cc1cc(C(C#N)c2ccc(Cl)cc2)c(Cl)cc1NC(=O)c1cc(I)cc(I)c1O", "note": "(stereo not drawn) [Closantel]", "HCT116-GFP viability": 31.1}
{"compound": "C[C@@H]1C[C@@H]([C@H](O)CC2CC(=O)NC(=O)C2)C(=O)[C@@H](C)C1", "note": "[Cycloheximide]", "HCT116-GFP viability": 5.68}
{"compound": "O=c1[nH]oc2c1CCNC2", "note": "[THIP Hydrochloride]", "HCT116-GFP viability": 50.1}
{"compound": "NCC1(CC(=O)O)CCCCC1", "note": "[Gabapentin]", "HCT116-GFP viability": 61.6}
{"compound": "CC(N)C(O)c1ccccc1", "note": "(stereo not drawn) [Phenylpropanolamine hydrochloride]", "HCT116-GFP viability": 28.7}
{"compound": "O=C(CCCN1CCC2(CC1)C(=O)NCN2c1ccccc1)c1ccc(F)cc1", "note": "[Spiperone]", "HCT116-GFP viability": 31.2}
{"compound": "C=C1CC[C@@]2(O)[C@H]3Cc4ccc(O)c5c4[C@@]2(CCN3CC2CC2)[C@H]1O5", "note": "[Nalmefene hydrochloride]", "HCT116-GFP viability": 29.6}
{"compound": "O=[N+]([O-])O[C@H]1CO[C@H]2[C@@H]1OC[C@H]2O[N+](=O)[O-]", "note": "[Isosorbide dinitrate]", "HCT116-GFP viability": 75.8}
{"compound": "CC(O)(CS(=O)(=O)c1ccc(F)cc1)C(=O)Nc1ccc(C#N)c(C(F)(F)F)c1", "note": "(stereo not drawn) [Bicalutamide]", "HCT116-GFP viability": 69.2}
{"compound": "CCOC(=O)c1cncn1[C@H](C)c1ccccc1", "note": "[Etomidate]", "HCT116-GFP viability": 62.7}
{"compound": "CC(C)c1cccc(C(C)C)c1O", "note": "[Propofol]", "HCT116-GFP viability": 65.6}
{"compound": "C[C@]12CC[C@H](O)C[C@H]1CC[C@@H]1[C@@H]2CC[C@]2(C)[C@@H](C3=CC(=O)OC3)CC[C@]12O", "note": "[Digitoxigenin]", "HCT116-GFP viability": 0.223}
{"compound": "CC(=O)O[C@H]1CC[C@@]2(C)C(=CC[C@@H]3[C@@H]2CC[C@]2(C)C(=O)CC[C@@H]32)C1", "note": "[Dehydroisoandosterone 3-acetate]", "HCT116-GFP viability": 72.2}
{"compound": "O=C(NCNC(=O)NC1C(=O)NC(=O)N1CO)NC1C(=O)NC(=O)N1CO", "note": "(stereo not drawn) [Imidurea]", "HCT116-GFP viability": 46.7}
{"compound": "CN1C[C@H](CNC(=O)OCc2ccccc2)C[C@@H]2c3cccc4c3c(cn4C)C[C@H]21", "note": "[Metergoline]", "HCT116-GFP viability": 63.8}
{"compound": "Oc1ccc2c3c1O[C@H]1[C@@H](O)CC[C@@]4(O)[C@@H](C2)N(CC2CCC2)CC[C@]314", "note": "[Nalbuphine hydrochloride]", "HCT116-GFP viability": 44.8}
{"compound": "COc1cc2c(c(OC)c1OC)-c1ccc(OC)c(=O)cc1[C@@H](NC(C)=O)CC2", "note": "[Colchicine]", "HCT116-GFP viability": 2.08}
{"compound": "c1ccc2c(c1)OCC(C1=NCCN1)O2", "note": "(stereo not drawn) [Idazoxan hydrochloride]", "HCT116-GFP viability": 51.6}
{"compound": "CCCCCC[C@H]1C(=O)O[C@H](C)[C@H](NC(=O)c2cccc(NC=O)c2O)C(=O)O[C@@H](C)[C@@H]1OC(=O)CC(C)C", "note": "[Antimycin A]", "HCT116-GFP viability": 26.5}
{"compound": "CC[N+]1(C)CCCC(OC(=O)C(O)(c2ccccc2)c2ccccc2)C1", "note": "(stereo not drawn) [Pipenzolate bromide]", "HCT116-GFP viability": 93.1}
{"compound": "C[C@]12COC(=O)C[C@@H]1CC[C@@H]1[C@@H]2CC[C@@]2(C)[C@H]1CC[C@]2(C)O", "note": "[Oxandrolone]", "HCT116-GFP viability": 53.1}
{"compound": "O=P1(N(CCCl)CCCl)NCCCO1", "note": "(stereo not drawn) [Cyclophosphamide]", "HCT116-GFP viability": 35.8}
{"compound": "CN1C(=O)CCS(=O)(=O)C1c1ccc(Cl)cc1", "note": "(stereo not drawn) [Chlormezanone]", "HCT116-GFP viability": 49.1}
{"compound": "CC(=O)[C@H]1CC[C@H]2[C@@H]3CC[C@H]4C[C@H](O)CC[C@]4(C)[C@H]3C(=O)C[C@]12C", "note": "[Alfaxalone]", "HCT116-GFP viability": 50.8}
{"compound": "C=C1C[C@@H]2[C@H](CC[C@]3(C)C(=O)CC[C@@H]23)[C@@]2(C)C=CC(=O)C=C12", "note": "[Exemestane]", "HCT116-GFP viability": 60.1}
{"compound": "C[C@]12C/C(=C/O)C(=O)C[C@@H]1CC[C@@H]1[C@@H]2CC[C@@]2(C)[C@H]1CC[C@]2(C)O", "note": "[Oxymetholone]", "HCT116-GFP viability": 31.3}
{"compound": "CCCC(C)(COC(N)=O)COC(=O)NC(C)C", "note": "(stereo not drawn) [Carisoprodol]", "HCT116-GFP viability": 49.4}
{"compound": "CCC1(C)CC(=O)NC(=O)C1", "note": "[Bemegride]", "HCT116-GFP viability": 69.2}
{"compound": "OC(c1ccccc1)(c1ccccc1)C1CCNCC1", "note": "[Azacyclonol]", "HCT116-GFP viability": 52.9}
{"compound": "NC(=O)OCCCc1ccccc1", "note": "[Phenprobamate]", "HCT116-GFP viability": 42}
{"compound": "C[N+]1(C)CCCC(OC(=O)C(O)(c2ccccc2)c2ccccc2)C1", "note": "(stereo not drawn) [Mepenzolate bromide]", "HCT116-GFP viability": 72.4}
{"compound": "C[C@@H]1CN([C@H]2CC[C@](C#N)(c3ccc(F)cc3)CC2)CC[C@]1(C(=O)O)c1ccccc1", "note": "[Levocabastine hydrochloride]", "HCT116-GFP viability": 35.4}
{"compound": "C=CCC1(CC(C)C)C(=O)NC(=O)NC1=O", "note": "[Butalbital]", "HCT116-GFP viability": 53.1}
{"compound": "O=C(CCCN1CCC(n2c(=O)[nH]c3ccccc32)CC1)c1ccc(F)cc1", "note": "[Benperidol]", "HCT116-GFP viability": 44.1}
{"compound": "COc1ccc(OC)c(C(O)C(C)N)c1", "note": "(stereo not drawn) [Methoxamine hydrochloride]", "HCT116-GFP viability": 52}
{"compound": "CCC(=O)O[C@H]1CC[C@H]2[C@@H]3CCC4=CC(=O)CC[C@]4(C)[C@H]3CC[C@]12C", "note": "[Testosterone propionate]", "HCT116-GFP viability": 60}
{"compound": "NCCCNCCSP(=O)(O)O", "note": "[Amifostine]", "HCT116-GFP viability": 27.8}
{"compound": "CC1OC(OC2/C=C/C=C/C=C/C=C/CC/C=C/C=C/[C@H](C)[C@@H](O)[C@@H](C)[C@H](C)OC(=O)CC(O)CC(O)CC(O)CCC(O)C(O)C[C@]3(O)CC(O)C(C(=O)O)C(C2)O3)C(O)C(N)C1O", "note": "(stereo partly drawn) [Nystatine]", "HCT116-GFP viability": 42.6}
{"compound": "O=c1[nH]c2ccccc2n1C1CCN(CCCC(c2ccc(F)cc2)c2ccc(F)cc2)CC1", "note": "[Pimozide]", "HCT116-GFP viability": 28.9}
{"compound": "C[C@]12CC[C@@H](O)C[C@H]1CC[C@@H]1[C@@H]2CC[C@]2(C)C(=O)CC[C@@H]12", "note": "[3-alpha-Hydroxy-5-beta-androstan-17-one]", "HCT116-GFP viability": 64.4}
{"compound": "C#CCN(C)[C@H](C)Cc1ccccc1", "note": "[Selegiline hydrochloride]", "HCT116-GFP viability": 58.4}
{"compound": "C[C@@H]1O[C@@H](O[C@@H]2C=C3CC[C@@H]4[C@H](CC[C@]5(C)[C@@H](c6ccc(=O)oc6)CC[C@]45O)[C@@]3(C)CC2)[C@H](O)[C@H](O)[C@H]1O", "note": "[Proscillaridin A]", "HCT116-GFP viability": 0.346}
{"compound": "CN(C)C(=O)Oc1ccc[n+](C)c1", "note": "[Pyridostigmine iodide]", "HCT116-GFP viability": 30.1}
{"compound": "CNC(=O)Oc1ccc2c(c1)[C@]1(C)CCN(C)[C@@H]1N2C", "note": "[Eserine hemisulfate salt]", "HCT116-GFP viability": 46.7}
{"compound": "CN(C)C(=O)Oc1cccc([N+](C)(C)C)c1", "note": "[Neostigmine bromide]", "HCT116-GFP viability": 29}
{"compound": "COc1ccc(C(CN(C)C)C2(O)CCCCC2)cc1", "note": "(stereo not drawn) [Venlafaxine]", "HCT116-GFP viability": 80.8}
{"compound": "CCNCC(O)c1cccc(O)c1", "note": "(stereo not drawn) [Etilefrine hydrochloride]", "HCT116-GFP viability": 46}
{"compound": "CC(C)(N)Cc1ccccc1", "note": "[Phentermine hydrochloride]", "HCT116-GFP viability": 41.1}
{"compound": "CC(C)C[C@H]1C(=O)N2CCC[C@H]2[C@]2(O)O[C@](NC(=O)[C@@H]3C=C4c5cccc6[nH]c(Br)c(c56)C[C@H]4N(C)C3)(C(C)C)C(=O)N12", "note": "[Bromocryptine mesylate]", "HCT116-GFP viability": 23.4}
{"compound": "CN1[C@@H]2CC[C@H]1C[C@@H](OC(=O)C(CO)c1ccccc1)C2", "note": "(stereo partly drawn) [Atropine sulfate monohydrate]", "HCT116-GFP viability": 17.7}
{"compound": "CCC1=C[C@H]2CN3CCc4c([nH]c5ccccc45)[C@](C(=O)OC)(C2)[C@H]13", "note": "[Catharanthine]", "HCT116-GFP viability": 44.1}
{"compound": "CNC(C)(C)Cc1ccccc1", "note": "[Mephentermine hemisulfate]", "HCT116-GFP viability": 75.5}
